Entries after “also recorded” stand apart in the source; their conditions may differ. Part of at least one peptide drawing is inferred or uncertain, most often the ends.
What was measured:
[1] = tested on: recent onset diabetic mice; assay: intra-arterial pancreatic sP injection in recent onset diabetic mice (T1D reversal); type: in vivo, mouse
[2] = tested on: autoimmune T cells; assay: CFSE T cell proliferation assay inside the pancreatic lymph node; type: in vivo, mouse
[3] = tested on: recent onset T1D patients; assay: planned clinical trial of celiac artery sP injection in recent onset T1D patients; type: in vivo, human; conditions: Stage B patients, expected from animal data
[4] = tested on: pancreatic tissue; assay: pancreatic vasodilation / hyperperfusion after sP injection (Evans Blue dye tracing); type: in vivo, mouse
[5] = tested on: recent onset diabetic mice; conditions: cited from earlier work

CSCC[C@H](NC(=O)[C@H](CC(C)C)NC(=O)CNC(=O)[C@H](Cc1ccccc1)NC(=O)[C@H](Cc1ccccc1)NC(=O)[C@H](CCC(N)=O)NC(=O)[C@H](CCC(N)=O)NC(=O)[C@@H]1CCCN1C(=O)[C@H](CCCCN)NC(=O)[C@@H]1CCCN1C(=O)[C@@H](N)CCCN=C(N)N)C(N)=O [sP, substance P]
efficacy of the lower dose ([1]; 0.2 nmol/mouse): only partial effects | islet infiltration, histology (FIG. 4) ([1]; 1 nmol/kg, mice with recent onset Type 1 diabetes): clean, no longer inflamed islet | efficacy by dose, animal experience ([1]; 1 nmoles, compared with 50-250 nmol/kg): marginally so | efficacy of the calculated standard dose ([1]; 2 nmol/20 g mouse (i.e. 100 nm sP/kg BW)): effective | efficacy by dose, animal experience ([1]; 10 nmol/kg, compared with 50-250 nmol/kg): less | efficacy by dose, animal experience ([1]; 50-250 nmol/kg): equally effective and lasting | efficacy of repeat injections ([1]; animal models, after recurrence of diabetes): effective | human equivalent of the reversal period ([1]; period of 4-6 months in NOD mice converted to humans): 6-8 years | lasting effect on insulin control ([1]; sP-injected newly diabetic mice): re-establishing normal insulin control for months | blood glucose levels after injection (FIG. 2) ([1]; sP-injected newly diabetic mice vs saline vehicle): normalizing blood sugars | in vivo proliferation of autoimmune T cells (FIG. 3) ([2]; sP treated mice vs diabetic controls): did not divide at all | survival of pathogenic T cell clones (FIG. 3) ([2]; sP-treated mice that also received an sP receptor (NK1R) antagonist): survival of at least two thirds of the pathogenic T cell clones | dose of expected maximal response [3]: 50 to 100 nmol/kg | hyperemia / tissue hyperperfusion after injection ([4]; i.a. pancreas injection): brief (minutes), dose-dependent hyperemia; also recorded: brief, transient (minutes) tissue hyperperfusion | pancreatic vasodilation (FIG. 5) ([4]; intra-arterial pancreas injection with substance P plus Evans Blue dye marker, mice): vasodilated pancreatic tissue | time to reversal of recent onset T1D ([5]; pancreatic delivery, recent onset diabetic mice): within hours | duration of reversal of recent onset T1D without any insulin therapy ([5]; single pancreatic injection via the celiac artery, NOD mice): 4-6 months | clearance of inflammatory lesions of the diabetic pancreas ([5]; single sP delivery): clears inflammatory lesions rapidly (overnight) and lastingly
